Assay results reported in patent US10501421B1, “Substituted benzimidazoles as modulators of Ras signaling” (VANDERBILT UNIVERSITY, priority 2017, dated 2019).
The structures given here were assigned with low confidence; some may be wrong.

Chains of the proteins cited; added tags and fusions are not shown. Residues count along the entry.
UniProt Q07889, 564-1049 limits assumed: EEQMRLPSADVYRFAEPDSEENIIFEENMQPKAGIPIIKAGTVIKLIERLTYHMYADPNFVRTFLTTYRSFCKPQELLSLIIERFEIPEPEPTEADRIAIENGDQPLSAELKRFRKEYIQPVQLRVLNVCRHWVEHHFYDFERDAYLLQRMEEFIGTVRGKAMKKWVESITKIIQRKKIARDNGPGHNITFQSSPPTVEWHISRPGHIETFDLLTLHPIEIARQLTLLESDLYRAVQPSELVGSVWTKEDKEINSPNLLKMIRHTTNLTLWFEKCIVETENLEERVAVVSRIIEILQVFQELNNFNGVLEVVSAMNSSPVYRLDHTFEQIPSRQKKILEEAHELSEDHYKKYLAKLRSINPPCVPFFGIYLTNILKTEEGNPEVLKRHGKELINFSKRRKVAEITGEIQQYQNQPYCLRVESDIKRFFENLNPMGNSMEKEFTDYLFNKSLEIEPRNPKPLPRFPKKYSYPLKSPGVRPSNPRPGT
UniProt P01112, 1-166 partner limits assumed: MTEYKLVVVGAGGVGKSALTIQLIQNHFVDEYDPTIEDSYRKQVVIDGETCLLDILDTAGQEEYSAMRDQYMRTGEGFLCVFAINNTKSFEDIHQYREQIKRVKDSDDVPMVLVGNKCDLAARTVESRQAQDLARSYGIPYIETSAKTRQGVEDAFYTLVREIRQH

What was measured:
[1] = biological target: Ras GEF SOS (Son of Sevenless) (Homo sapiens, UniProt Q07889); test: SOS-mediated nucleotide exchange on Ras (BODIPY-GDP fluorescence); type: biochemical; settings: read-out: Nucleotide exchange activity (nucleotide exchange EC50); SOS-mediated exchange of BODIPY-GDP for GTP on Ras; tested form: trifluoroacetate
[2] = system: H727 lung cancer cell lines (G12V K-Ras mutation); test: Inhibition of cancer cell proliferation (CellTiter-Glo); type: cell-based; settings: read-out: Cell proliferation activity (H727 cancer cell line proliferation IC50), H727 cells, 3 days treatment, tested form: trifluoroacetate
Description: Compounds of the present invention were measured for their ability to kill H727 lung cancer cell lines, which contain a G12V K-Ras mutation. Cell proliferation experiments were conducted in 96-well plates. Cells were plated at 1000 cells/well, incubated overnight, followed by treatment with a dose range of compound for 3 days at 37° C. Cell proliferation was assessed using a CellTiter-Glo assay (Promega) according to the manufacturer's protocol. Data were normalized to DMSO control. IC50 values were determined using a four-parameter dose-response (variable slope) equation. These assays are performed in a manner analogous to the assay disclosed in: Burns, M. C.; Sun, Q.; Daniels, R. N.; Camper, D. V.; Kennedy, J. P.; Phan, J.; Olejniczak, E. O.; Lee, T.; Waterson, A. G.; Rossanese, O. W.; Fesik, S. W. “Approach for targeting Ras with small molecules that activate SOS-mediated nucleotide exchange” Proc. Natl. Acad. Sci. 2014; 11(9): 3401-3406. PMCID: PMC3948241.

`Fc1ccc(Cn2c(N3CCNCC3)nc3c(-c4ccccc4F)cccc32)cc1Cl` showed an EC50 [1] of 1 to 5 µM and an IC50 [2] of 5 to 20 µM.
